Among the data in the supplement of paper PMC10849652 are log2 fold change values, retold here.

Amino acid sequences for entries named in this document (tags omitted). A change or cut given only in a name is not applied to a line headed by its entry.
UniProt Q9BS16: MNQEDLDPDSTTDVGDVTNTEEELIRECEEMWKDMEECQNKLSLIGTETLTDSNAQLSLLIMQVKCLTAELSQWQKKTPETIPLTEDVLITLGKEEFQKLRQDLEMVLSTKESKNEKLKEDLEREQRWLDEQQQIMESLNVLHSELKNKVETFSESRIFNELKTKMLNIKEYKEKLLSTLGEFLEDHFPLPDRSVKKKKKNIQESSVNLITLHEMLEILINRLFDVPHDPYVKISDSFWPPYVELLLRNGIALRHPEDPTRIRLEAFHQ
UniProt P17676: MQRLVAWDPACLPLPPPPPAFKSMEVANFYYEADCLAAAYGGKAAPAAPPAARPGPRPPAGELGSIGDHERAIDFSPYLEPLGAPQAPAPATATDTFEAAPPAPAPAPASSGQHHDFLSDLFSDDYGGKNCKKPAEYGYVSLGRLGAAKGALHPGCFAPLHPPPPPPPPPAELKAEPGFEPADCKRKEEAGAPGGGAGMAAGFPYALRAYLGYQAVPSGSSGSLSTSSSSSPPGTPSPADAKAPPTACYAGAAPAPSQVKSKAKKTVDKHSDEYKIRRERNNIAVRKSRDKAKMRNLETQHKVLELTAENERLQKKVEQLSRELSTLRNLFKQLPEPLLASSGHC
UniProt Q9Y5S2: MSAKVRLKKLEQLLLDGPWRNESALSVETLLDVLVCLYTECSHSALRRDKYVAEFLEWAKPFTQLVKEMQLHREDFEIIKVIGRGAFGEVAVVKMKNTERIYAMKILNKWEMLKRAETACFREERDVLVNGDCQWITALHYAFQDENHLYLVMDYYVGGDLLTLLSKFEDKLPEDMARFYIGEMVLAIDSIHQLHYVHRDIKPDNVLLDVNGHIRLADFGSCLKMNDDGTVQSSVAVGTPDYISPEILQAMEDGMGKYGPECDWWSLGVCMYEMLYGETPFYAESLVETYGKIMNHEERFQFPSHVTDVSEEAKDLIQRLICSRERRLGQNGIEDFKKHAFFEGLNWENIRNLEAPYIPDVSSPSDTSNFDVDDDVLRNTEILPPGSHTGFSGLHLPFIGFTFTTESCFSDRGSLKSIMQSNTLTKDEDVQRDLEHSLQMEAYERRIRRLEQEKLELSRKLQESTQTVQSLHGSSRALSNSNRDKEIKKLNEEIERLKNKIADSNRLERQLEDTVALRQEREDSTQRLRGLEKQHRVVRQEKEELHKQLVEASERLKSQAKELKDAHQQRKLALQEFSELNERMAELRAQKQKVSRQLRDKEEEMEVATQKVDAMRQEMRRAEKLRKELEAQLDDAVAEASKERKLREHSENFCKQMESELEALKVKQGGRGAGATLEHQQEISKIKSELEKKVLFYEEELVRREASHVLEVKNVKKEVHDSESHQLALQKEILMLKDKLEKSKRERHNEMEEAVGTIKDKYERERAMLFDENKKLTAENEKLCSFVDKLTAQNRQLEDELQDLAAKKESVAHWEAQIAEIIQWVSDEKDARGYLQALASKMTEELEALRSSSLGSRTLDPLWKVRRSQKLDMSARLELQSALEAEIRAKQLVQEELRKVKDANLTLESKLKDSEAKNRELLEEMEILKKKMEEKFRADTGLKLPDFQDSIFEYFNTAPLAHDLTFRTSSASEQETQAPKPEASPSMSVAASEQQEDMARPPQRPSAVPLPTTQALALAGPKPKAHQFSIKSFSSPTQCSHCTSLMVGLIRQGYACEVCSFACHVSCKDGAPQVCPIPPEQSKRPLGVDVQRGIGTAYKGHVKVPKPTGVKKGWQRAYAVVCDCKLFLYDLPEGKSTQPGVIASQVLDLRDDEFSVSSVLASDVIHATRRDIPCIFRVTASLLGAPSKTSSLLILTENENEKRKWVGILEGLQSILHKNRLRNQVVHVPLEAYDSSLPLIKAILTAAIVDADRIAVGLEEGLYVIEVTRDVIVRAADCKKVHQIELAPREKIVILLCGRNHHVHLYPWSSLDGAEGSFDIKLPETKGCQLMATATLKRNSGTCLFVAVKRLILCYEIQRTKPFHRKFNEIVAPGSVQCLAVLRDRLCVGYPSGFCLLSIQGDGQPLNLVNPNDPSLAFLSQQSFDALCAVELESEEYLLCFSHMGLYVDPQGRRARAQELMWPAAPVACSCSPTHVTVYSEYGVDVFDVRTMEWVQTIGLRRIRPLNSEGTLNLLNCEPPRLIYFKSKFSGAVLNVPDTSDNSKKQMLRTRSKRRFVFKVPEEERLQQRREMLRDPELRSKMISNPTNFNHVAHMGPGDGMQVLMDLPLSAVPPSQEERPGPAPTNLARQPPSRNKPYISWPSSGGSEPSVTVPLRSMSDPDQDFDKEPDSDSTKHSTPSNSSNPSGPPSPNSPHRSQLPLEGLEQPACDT
UniProt Q9UKJ5: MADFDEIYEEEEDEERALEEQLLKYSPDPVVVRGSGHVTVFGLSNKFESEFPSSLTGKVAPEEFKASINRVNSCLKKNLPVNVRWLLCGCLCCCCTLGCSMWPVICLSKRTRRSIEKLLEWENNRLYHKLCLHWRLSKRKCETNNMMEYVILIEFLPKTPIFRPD
UniProt Q9C0F1: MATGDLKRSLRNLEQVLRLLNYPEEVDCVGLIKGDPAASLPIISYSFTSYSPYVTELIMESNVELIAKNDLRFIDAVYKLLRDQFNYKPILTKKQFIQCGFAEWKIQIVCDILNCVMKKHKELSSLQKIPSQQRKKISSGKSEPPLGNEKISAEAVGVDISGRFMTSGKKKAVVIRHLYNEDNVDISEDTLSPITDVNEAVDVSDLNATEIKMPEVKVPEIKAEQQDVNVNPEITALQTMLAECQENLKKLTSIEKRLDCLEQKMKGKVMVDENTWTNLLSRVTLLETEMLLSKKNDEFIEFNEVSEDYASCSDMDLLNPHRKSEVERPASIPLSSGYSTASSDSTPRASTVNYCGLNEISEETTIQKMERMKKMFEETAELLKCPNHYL
UniProt Q00537: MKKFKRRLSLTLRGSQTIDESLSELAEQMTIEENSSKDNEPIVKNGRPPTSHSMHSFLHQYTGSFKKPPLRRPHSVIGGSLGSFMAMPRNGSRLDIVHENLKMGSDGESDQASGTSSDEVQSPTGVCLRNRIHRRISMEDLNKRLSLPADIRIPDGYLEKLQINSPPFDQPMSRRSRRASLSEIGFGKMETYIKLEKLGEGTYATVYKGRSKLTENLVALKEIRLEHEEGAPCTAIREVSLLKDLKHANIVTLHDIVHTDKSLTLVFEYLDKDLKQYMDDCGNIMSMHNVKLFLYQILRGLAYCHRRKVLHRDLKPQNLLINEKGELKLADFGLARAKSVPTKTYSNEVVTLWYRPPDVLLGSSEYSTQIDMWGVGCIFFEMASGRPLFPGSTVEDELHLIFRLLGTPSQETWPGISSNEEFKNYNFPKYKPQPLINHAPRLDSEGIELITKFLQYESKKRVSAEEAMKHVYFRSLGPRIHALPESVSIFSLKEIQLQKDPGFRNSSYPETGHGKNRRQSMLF
UniProt P11802: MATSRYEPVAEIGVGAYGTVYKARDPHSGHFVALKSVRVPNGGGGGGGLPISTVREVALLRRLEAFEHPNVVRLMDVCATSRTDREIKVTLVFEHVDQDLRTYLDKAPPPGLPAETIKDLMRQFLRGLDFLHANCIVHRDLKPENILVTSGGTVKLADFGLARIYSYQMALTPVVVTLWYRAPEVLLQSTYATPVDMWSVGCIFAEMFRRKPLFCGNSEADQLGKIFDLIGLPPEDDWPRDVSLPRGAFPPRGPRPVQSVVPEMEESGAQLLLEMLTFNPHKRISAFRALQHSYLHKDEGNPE
UniProt Q9Y281, whole entry, looked up: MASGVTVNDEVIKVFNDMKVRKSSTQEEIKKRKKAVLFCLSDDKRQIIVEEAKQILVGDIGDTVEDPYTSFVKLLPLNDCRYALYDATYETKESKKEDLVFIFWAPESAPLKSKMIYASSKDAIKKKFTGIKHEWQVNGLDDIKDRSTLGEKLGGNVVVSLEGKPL
UniProt P49336: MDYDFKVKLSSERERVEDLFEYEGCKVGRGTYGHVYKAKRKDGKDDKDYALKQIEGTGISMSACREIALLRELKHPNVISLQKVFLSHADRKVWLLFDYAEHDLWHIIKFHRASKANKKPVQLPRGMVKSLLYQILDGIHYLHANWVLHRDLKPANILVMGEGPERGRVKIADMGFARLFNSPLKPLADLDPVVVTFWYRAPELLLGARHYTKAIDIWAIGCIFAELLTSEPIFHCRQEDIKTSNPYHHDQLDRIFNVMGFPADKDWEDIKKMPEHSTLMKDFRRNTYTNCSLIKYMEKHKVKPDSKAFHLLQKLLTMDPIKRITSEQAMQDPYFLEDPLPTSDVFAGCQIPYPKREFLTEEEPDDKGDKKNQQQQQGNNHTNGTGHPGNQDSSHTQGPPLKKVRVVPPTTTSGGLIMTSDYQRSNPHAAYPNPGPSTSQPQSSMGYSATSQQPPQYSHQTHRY
UniProt P06493, whole entry, looked up: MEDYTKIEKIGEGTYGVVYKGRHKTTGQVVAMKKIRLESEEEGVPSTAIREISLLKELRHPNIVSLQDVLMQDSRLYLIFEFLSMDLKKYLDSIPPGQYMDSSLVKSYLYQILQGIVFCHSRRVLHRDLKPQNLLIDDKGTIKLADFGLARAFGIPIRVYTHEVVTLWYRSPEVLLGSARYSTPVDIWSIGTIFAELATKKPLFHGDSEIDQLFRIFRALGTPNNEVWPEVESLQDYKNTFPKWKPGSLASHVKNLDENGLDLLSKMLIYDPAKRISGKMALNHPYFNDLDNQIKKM
UniProt Q15517: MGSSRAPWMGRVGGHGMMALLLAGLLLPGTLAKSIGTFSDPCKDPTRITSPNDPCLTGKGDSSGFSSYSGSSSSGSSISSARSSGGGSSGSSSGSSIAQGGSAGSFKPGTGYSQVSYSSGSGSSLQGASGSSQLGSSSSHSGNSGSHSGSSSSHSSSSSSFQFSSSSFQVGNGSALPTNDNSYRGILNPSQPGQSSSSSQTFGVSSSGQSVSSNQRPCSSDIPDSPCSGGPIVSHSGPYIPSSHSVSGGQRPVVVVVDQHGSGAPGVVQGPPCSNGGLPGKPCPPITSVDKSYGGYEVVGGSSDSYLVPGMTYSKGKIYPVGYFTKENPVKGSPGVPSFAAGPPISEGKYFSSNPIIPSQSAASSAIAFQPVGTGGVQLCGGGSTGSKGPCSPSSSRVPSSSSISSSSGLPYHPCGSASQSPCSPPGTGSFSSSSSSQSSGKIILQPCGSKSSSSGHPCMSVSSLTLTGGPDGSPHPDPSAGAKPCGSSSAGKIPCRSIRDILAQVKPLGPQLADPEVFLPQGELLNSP
UniProt O75956: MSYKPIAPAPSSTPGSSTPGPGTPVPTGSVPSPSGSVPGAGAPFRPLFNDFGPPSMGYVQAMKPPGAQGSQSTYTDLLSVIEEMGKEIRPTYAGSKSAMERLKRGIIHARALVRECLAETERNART
UniProt P00751, whole entry, looked up: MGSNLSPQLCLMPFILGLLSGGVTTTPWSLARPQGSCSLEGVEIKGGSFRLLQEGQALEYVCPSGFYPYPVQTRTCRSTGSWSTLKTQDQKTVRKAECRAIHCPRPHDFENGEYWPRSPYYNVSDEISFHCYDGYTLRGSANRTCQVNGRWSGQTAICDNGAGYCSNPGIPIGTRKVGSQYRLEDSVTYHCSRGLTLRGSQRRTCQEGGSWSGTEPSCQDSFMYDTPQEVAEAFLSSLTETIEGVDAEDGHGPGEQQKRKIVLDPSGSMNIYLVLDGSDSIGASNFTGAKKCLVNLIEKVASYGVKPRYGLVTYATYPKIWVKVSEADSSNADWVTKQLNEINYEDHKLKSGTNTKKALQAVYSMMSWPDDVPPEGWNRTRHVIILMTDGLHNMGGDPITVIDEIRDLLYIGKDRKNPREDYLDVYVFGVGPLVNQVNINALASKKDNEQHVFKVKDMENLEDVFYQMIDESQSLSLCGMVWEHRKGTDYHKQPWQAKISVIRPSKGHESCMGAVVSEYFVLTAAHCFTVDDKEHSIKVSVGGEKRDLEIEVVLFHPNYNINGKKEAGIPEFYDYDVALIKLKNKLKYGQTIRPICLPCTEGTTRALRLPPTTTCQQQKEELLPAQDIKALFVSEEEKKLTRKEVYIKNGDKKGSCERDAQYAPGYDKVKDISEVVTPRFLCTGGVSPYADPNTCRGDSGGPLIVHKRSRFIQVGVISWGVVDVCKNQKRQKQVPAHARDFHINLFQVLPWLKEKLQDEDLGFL
UniProt Q96G28: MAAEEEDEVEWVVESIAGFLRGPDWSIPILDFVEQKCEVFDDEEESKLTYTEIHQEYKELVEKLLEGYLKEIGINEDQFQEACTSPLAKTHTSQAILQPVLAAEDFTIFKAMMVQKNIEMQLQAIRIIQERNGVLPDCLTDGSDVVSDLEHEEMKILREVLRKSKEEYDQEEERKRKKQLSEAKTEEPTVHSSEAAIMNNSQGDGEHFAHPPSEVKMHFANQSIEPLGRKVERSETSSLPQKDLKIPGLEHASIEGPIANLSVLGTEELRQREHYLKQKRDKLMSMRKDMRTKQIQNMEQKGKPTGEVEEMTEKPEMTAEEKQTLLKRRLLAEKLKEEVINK

The list shows a part of the results.

Compound in the assay: c1ccc([C@@H]2C[C@H]2NC2CCNCC2)cc1
The assay can be described thus: log2 fold change, soluble protein after heating vs DMSO (PISA); higher = thermal stabilisation; K562 cells, 10 uM, 30 min; active = over 0.2 and 3.5 SD of the protein, either way, in both replicates (recomputed). The method, boiled down: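 For each measurement, 10 μM compound was applied for 30 min to K562 cells at 2×10^6 cells/mL. Aliquots were heated for 3 min across 48°C-58°C, pooled, and extracted in PBS with 0.5% NP-40 at 4°C; the supernatant after 21,000xg for 90 min was soluble protein. This was quantified by TMTpro 16plex LC-MS/MS with channel sums equalised, and thermal stability was reported relative to control samples from duplicates, on a log2 fold-change scale.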
Take CEP192 (UniProt Q8TEP8): the log2 fold change is inactive: 0.084.
The figure for CENPK (UniProt Q9BS16) is inactive: -0.255; for CEBPB (UniProt P17676) it is inactive: -0.045; for CDC42BPB (UniProt Q9Y5S2) it is inactive: -0.004.
For CHIC2 (UniProt Q9UKJ5), the log2 fold change was inactive: -0.052.
CDV3 (UniProt Q9UKY7): the log2 fold change is inactive: -0.007.
As to CEP44 (UniProt Q9C0F1), the log2 fold change is inactive: 0.033.
For CDK12 (UniProt Q9NYV4) the value was inactive: 0.008; for CDK17 isoform 2 (UniProt Q00537), inactive: -0.083; for CHCHD1 (UniProt Q96BP2), inactive: 0.021.
The figure for CDK4 (UniProt P11802) is inactive: -0.165.
In the case of CFL2 (UniProt Q9Y281), the log2 fold change was inactive: -0.055.
For CDK8 (UniProt P49336) the value was inactive: -0.129; for CDK1 (UniProt P06493), inactive: 0.037.
For CDSN (UniProt Q15517) the value was inactive: 0.122; for CDK2AP2 (UniProt O75956), inactive: 0.012.
The figure for CFB (UniProt P00751) is inactive: 0.011; for CFAP36 isoform 2 (UniProt Q96G28) it is inactive: -0.158.
